The target in this experiment is Sphingosine-1-phosphate receptor 1 (S1PR1) (human (endogenous in TE-13)) (UniProt P21453). As to the kind of experiment: co-IP; TE-13 total lysate incubated with protein A/G agarose and S1PR1 antibody or STAT3 antibody at 4 °C overnight; immune complexes analysed by Western blot with antibodies against S1PR1 and STAT3. Background: A western blot detects proteins with antibodies after separation by electrophoresis.

The chains behind the UniProt entries cited, without tags or fusion partners.
UniProt P21453: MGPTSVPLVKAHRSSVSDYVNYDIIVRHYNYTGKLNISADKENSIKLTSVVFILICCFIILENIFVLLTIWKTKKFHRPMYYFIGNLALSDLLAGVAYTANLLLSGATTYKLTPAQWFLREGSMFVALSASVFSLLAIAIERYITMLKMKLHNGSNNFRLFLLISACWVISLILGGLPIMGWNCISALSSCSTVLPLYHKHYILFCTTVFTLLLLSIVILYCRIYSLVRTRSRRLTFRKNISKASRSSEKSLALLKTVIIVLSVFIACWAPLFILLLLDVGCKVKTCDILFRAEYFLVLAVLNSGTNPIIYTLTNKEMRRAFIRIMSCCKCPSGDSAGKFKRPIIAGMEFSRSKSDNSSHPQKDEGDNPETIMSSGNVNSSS
UniProt P40763: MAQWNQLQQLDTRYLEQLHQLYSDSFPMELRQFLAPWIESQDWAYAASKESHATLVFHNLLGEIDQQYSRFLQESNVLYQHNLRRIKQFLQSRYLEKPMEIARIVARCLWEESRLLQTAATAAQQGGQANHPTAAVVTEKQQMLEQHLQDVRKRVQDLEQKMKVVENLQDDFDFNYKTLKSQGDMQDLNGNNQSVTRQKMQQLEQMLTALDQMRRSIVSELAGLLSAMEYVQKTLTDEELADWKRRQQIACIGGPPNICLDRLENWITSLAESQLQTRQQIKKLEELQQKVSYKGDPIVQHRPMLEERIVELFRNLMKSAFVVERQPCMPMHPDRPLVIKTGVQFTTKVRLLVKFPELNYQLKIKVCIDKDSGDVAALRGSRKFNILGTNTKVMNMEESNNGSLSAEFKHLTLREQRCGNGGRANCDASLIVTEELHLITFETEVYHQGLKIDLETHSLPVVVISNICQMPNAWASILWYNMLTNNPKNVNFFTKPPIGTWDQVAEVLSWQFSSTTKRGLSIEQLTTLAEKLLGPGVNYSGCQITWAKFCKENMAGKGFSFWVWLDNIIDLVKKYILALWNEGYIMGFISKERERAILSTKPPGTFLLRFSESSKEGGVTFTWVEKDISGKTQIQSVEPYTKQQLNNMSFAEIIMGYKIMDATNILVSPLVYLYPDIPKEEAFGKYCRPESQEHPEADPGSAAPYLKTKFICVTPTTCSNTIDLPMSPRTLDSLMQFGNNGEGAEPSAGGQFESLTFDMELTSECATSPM

These are yes or no findings as the source states them, for the method shown. Binding seen in cells or lysates may run through a third protein. Some binding calls cover weakened binding; strength is not graded here.

Take “signal transducing activator of transcription 3 (STAT3) (from UniProt P40763 1-770)”: the binding result is reported as “binds”.

The values are drawn from paper PMC6706905.
